Assay results as given in patent US9134318B2, “Detection of oxidized polypeptides” (Purdue Research Foundation, priority 2009, dated 2015).

The substances below were run on carbonylated plasma proteins (assay: iTRAQ and MALDI/TOF/TOF quantitative comparison of avidin-selected carbonylated proteins, breast cancer patients vs controls (Table 8)). Settings: avidin-selected carbonylated protein in plasma, breast cancer patient vs matched control, iTRAQ; repeated lines of a protein = different donors; negative = lower in cancer.
Design: species or system Homo sapiens

Substance	Breast cancer/control (fold change)
Complement C3 precursor	−1.6 fold change
Oxygen-regulated protein 1	−3.0 fold change
Immunoglobulin J chain	1.6 fold change
Myosin-5B	−1.5 fold change
Hemoglobin subunit delta	−2.2 fold change
Serum albumin precursor	2.7 fold change
Ig kappa chain V-III region CLL precursor	2.0 fold change
Ig heavy chain V-III region TRO	2.1 fold change
Titin	−1.7 fold change
Bulious pemphigoid antigen 1, isoforms	−2.5 fold change
Serine/threonine-protein kinase TBK1	−1.6 fold change
80 kDa MCM3-associated protein	−2.1 fold change
Apolipoprotein A-II precursor	1.9 fold change
Complement C1q subcomponent subunit A precursor	2.0 fold change
Complement C4-B precursor	1.5 fold change
Hemopexin precursor	1.5 fold change and 2.6 fold change

Substance	Breast cancer/control (fold change)
Ig heavy chain V-III region GAL	1.9 fold change
Vitronectin precursor	−1.6 fold change
Haptoglobin precursor	2.2 fold change
Zonadhesin precursor	−7.8 fold change
Myosin IIIA	−1.6 fold change
Centromere protein F	−5.5 fold change
Nesprin-1	−2.8 fold change
Ig heavy chain V-III region KOL	1.7 fold change
Spectrin alpha chain, erythrocyte	−4.1 fold change
Complement C1q subcomponent subunit C precursor	1.9 fold change
Serotransferrin precursor	2.4 fold change
Usherin precursor	−2.5 fold change
Myotubularin-related protein 13	4.7 fold change
Alpha-2-macroglobulin precursor	2.5 fold change
Plexin-C1 precursor	−5.1 fold change
Apolipoprotein B-100 precursor	1.8 fold change

These substances were tested on carbonylated plasma proteins (assay: MALDI/TOF/TOF identification of avidin-selected carbonylated proteins in normal human plasma (Table 6)). Settings: Donor 1; MALDI-MS/MS (ABI 4800 plus).

Substance	Number of unique peptides assigned to the protein
CO3_HUMAN	14.7
APOB_HUMAN	7.73

Same assay, conditions: Donor 2; MALDI-MS/MS (ABI 4800 plus)

Substance	Number of unique peptides assigned to the protein
HBB_HUMAN	5.22
TRFE_HUMAN	5.53

Same assay, conditions: Donor 3; MALDI-MS/MS (ABI 4800 plus)

Substance	Number of unique peptides assigned to the protein
PROS_HUMAN	6.33

Same assay, conditions: Donor 4; MALDI-MS/MS (ABI 4800 plus)

Substance	Number of unique peptides assigned to the protein
A1AT_HUMAN	2

Where “and” joins values, the source holds several entries; their conditions need not be identical. Equal entries are not always repeated.
